Reference: patent US20200024335A1 (BERG, published 2020)
No constants are given. Whether binding was seen depends on the method and setting. Some results given as binding are weak or reduced against the parent protein; the word gives no strength. One block for each binder: values may come before it.

Legend:
[1] = target: T1, E. coli-expressed partial FLNB (aa1416-2089), Filamin B immunogen (human) (UniProt O75369); assay: ELISA, coated protein, hybridoma supernatant
T1 sequence: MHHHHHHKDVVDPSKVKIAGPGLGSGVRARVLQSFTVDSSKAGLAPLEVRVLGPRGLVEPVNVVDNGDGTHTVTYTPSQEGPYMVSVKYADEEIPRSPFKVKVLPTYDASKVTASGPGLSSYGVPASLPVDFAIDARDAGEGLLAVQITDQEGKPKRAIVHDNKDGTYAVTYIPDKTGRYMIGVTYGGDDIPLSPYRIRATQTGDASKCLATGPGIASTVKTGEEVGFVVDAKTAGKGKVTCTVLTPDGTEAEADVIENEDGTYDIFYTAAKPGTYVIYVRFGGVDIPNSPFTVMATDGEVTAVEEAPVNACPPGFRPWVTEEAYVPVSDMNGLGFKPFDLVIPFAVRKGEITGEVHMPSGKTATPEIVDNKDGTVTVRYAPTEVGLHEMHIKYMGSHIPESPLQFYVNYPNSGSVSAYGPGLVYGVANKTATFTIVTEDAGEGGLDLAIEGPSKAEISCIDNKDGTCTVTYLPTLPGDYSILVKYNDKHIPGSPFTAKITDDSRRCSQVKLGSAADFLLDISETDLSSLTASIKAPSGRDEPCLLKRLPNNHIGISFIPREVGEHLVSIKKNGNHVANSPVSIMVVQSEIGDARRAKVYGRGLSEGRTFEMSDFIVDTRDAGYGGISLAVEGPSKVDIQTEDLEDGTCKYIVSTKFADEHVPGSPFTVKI

[2] = target: T2, FLNB (standards, controls and FLNB in human serum or plasma samples, sandwich ELISA of Example 5) (human) (UniProt O75369); assay: sandwich ELISA, biotin-linked 5H7 as detection antibody
T2 sequence (looked up): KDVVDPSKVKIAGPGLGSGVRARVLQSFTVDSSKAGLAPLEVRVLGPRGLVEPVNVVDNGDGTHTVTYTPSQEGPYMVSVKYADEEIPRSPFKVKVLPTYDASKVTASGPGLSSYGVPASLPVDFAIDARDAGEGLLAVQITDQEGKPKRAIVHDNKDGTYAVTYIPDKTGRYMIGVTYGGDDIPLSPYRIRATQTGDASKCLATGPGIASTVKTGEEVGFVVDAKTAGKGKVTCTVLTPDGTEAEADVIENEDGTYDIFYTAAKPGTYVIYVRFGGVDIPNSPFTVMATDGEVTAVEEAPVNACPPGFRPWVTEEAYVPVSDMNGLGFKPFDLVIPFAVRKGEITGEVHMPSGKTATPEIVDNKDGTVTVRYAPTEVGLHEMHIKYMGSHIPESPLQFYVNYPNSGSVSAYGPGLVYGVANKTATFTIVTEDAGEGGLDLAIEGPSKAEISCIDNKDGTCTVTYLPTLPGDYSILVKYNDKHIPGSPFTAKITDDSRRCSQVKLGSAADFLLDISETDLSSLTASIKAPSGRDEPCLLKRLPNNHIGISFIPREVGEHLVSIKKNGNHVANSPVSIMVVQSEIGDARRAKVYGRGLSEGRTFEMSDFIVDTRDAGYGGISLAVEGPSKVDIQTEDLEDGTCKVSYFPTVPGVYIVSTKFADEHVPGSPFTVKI

[3] = target: T2, FLNB (standards, controls and FLNB in human serum or plasma samples, sandwich ELISA of Example 5) (human); assay: sandwich ELISA, 3F10 coated as capture antibody

binding [1]: binds
binding [2]: binds
B1: 5H7 murine monoclonal anti-FLNB antibody (antibody, IgG2b, V domains shown)
VH: DVQLQESGPGLVKPSQSLSLTCSVTGYSITSGYYWNWIRQFPGNKLEWMGYISYDGSNNYNPSLKNRISITRDTSKNQFFLRLNSVTTEDTATYYCARETWASFDYWGQGTTLTVSS
VL: DIVMTQSQKFMSTTVGDRVGITCKASQNVGIAVAWYQQKPGQSPRLLIYSASYRYTGVPDRFSGSGSGTDFTLTINNMQSEDLADYFCQQYSSYPLTFGSGTKLEIK
notes: also called clone 5H7; biotin-linked monoclonal antibody specific for FLNB (5H7)

binding [1]: binds
binding [3]: binds
B2: 3F10 murine monoclonal anti-FLNB antibody (antibody, V domains shown)
VH: QVQLQQPGAELVKPGASVKLSCKASGYTFTSYWMHWVKQRPGQGLEWIGMIHPNSGSTNYNEKFKSKATLTVDKSSSTAYMQLSSLTSEDSAVYYCAIYGSGPWFAYWGQGTLVTVSA
VL: DIQMTQSPASLSASVGETVTITCRASENIYSSLAWYQQKQGKSPQLLVYYAKTLAEGVPSRFSGSGSGTQFSLKINRLQPEDFGSYYCQHHYGSPLTFGAGTKLELK
notes: Tested as hybridoma supernatant or purified antibody; also called clone 3F10; anti-FLNB antibody (3F10)
